Assay results: article PMC7819943, “Rice protein-binding microarrays: a tool to detect cis-acting elements near promoter regions in rice”
The list shows a part of the results.

The sequences below were run against T1, OsSMF1 (Oryza sativa, UniProt Q6ZLB0 1-436) (assay: protein-binding microarray (RPBM); PBS, 2% BSA, 51.3 ng/ul salmon testes DNA, 50 uM zinc acetate, 200 nM TF, 25 C, 1 h; high values mean tight binding). Conditions: protein: recombinant; tags: N-terminal polyhistidine and DsRed monomer fusion (pET32a); chain copies: 2; label: CyDye5-dUTP incorporated in the synthesized complementary strand; 3' TTTTT single-stranded linker to array surface; dsDNA, one strand shown.
T1 sequence: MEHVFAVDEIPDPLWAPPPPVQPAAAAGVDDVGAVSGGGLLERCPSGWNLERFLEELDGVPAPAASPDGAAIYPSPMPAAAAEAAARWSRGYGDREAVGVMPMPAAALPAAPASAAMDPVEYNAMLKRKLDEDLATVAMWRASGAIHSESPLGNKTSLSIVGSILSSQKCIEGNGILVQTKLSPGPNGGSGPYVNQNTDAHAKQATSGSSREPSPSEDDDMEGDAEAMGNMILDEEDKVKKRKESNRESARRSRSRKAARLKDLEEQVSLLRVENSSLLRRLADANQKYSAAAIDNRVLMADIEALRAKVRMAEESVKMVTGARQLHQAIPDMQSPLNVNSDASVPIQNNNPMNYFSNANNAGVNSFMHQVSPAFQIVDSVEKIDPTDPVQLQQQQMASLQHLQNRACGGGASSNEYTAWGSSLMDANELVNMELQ
How it was run: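 In PBS with 2% BSA, salmon testes DNA and 50 µM zinc acetate, 200 nM protein was incubated on a custom Agilent array at 25 °C for 1 h and then washed off. The array had been made double-stranded by primer extension with Cy5-dUTP and blocked with 2% BSA. The proteins were transcription factors fused N-terminally to polyhistidine and DsRed, expressed in E. coli BL21-CodonPlus and purified on Ni–NTA. The binding signal is per-feature fluorescence intensity (arbitrary units) from an Axon 4000B scanner.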

Sequence	binding signal
AATCCACATCACTCCCTCACACTCTCACTCGTAGCGAAGCCGGAGTCACCTAGTGCAG	5470 fluorescence intensity (a.u.)
AGCACTATACCATATTGTCTACACGTGACACTAATAGGTTCGGAGTCACCTAGTGCAG	4290 fluorescence intensity (a.u.)
TTTCGCCATTTCCGACAATGTACTTCACCACTGATCTGAACGGAGTCACCTAGTGCAG	64900 fluorescence intensity (a.u.)
GGACTATATAGTAGGAGTACGTCACTACGTCCTGTATAGGCGGAGTCACCTAGTGCAG	5840 fluorescence intensity (a.u.)
GGAGTATCATTTTGTCTATTCTATTTAGACACAACATGTTCGGAGTCACCTAGTGCAG	3920 fluorescence intensity (a.u.)
AACCTCGCCACCTCCTCCACGTTATGGCATCGCCTCCTCGCGGAGTCACCTAGTGCAG	6660 fluorescence intensity (a.u.)
TAACTTTGGATGAAGTTTTGGATTTTCGTGGCACGCTTTTCGGAGTCACCTAGTGCAG	4370 fluorescence intensity (a.u.)
GTAAAATTCCTCGTGATGACATGGACTGATATTTTCCCTGCGGAGTCACCTAGTGCAG	6110 fluorescence intensity (a.u.)
GCGCTAAAAGTTCTCCTGCGACGTCATCAGTGTAAAGGCTCGGAGTCACCTAGTGCAG	9600 fluorescence intensity (a.u.)
TTATAGGATGACATATAGCGGCTTAGGAGCGTTTGTAGAACGGAGTCACCTAGTGCAG	34100 fluorescence intensity (a.u.)
CGATCAAAGCGTGCCACCTACATCCTCGAGAGCGTCTCCCCGGAGTCACCTAGTGCAG	3650 fluorescence intensity (a.u.)
TTGATCCATACCTTACATTCTTGATTACACATTGCTGACTCGGAGTCACCTAGTGCAG	3600 fluorescence intensity (a.u.)
CGTCCAAATATTATTTCCTGCGCGTGGTTTACAAAAGAGGCGGAGTCACCTAGTGCAG	47300 fluorescence intensity (a.u.)
CCCATCAACGAATACGATGCGGCCATGACTCGGCGCAGGACGGAGTCACCTAGTGCAG	4320 fluorescence intensity (a.u.)
TTTCACCTGGTAAAGTTGTGTGTCAGCTGTGGTTTGCTGTCGGAGTCACCTAGTGCAG	6630 fluorescence intensity (a.u.)
ATCCTATCCTACGTGTCATATGCTCCACATCAGCGAGCGGCGGAGTCACCTAGTGCAG	23100 fluorescence intensity (a.u.)
TTTTACATATATATATGTCATGTAATTGACATAAGTAGACCGGAGTCACCTAGTGCAG	26100 fluorescence intensity (a.u.)
TTAAAGTATCCGCGCCCCTTTTATGCTAGCTGGAGCAAAACGGAGTCACCTAGTGCAG	19000 fluorescence intensity (a.u.)
CCCTTTCATCGGCGACGACTCATCGTCGTCATCGTTCGTCCGGAGTCACCTAGTGCAG	4410 fluorescence intensity (a.u.)
ATTCCAGTCCTCTCCATGGTAGTCAACGTCAATTTCTCACCGGAGTCACCTAGTGCAG	3840 fluorescence intensity (a.u.)
CTCGTGCAAGGAAGACATGTCTGCATCTCCATAGTCAAACCGGAGTCACCTAGTGCAG	4380 fluorescence intensity (a.u.)

A portion from the list above:
Sequence	binding signal
TTAAAGTATCCGCGCCCCTTTTATGCTAGCTGGAGCAAAACGGAGTCACCTAGTGCAG	19000 fluorescence intensity (a.u.)
CCCTTTCATCGGCGACGACTCATCGTCGTCATCGTTCGTCCGGAGTCACCTAGTGCAG	4410 fluorescence intensity (a.u.)

Part of the list above, as a markdown table.

| Sequence | binding signal |
| --- | --- |
| GCGCTAAAAGTTCTCCTGCGACGTCATCAGTGTAAAGGCTCGGAGTCACCTAGTGCAG | 9600 fluorescence intensity (a.u.) |
| TTTCACCTGGTAAAGTTGTGTGTCAGCTGTGGTTTGCTGTCGGAGTCACCTAGTGCAG | 6630 fluorescence intensity (a.u.) |

Following part.

Sequence	binding signal
TAGGATCCATATGAGTCAATGATATGTGGGTCAGGATGGTCGGAGTCACCTAGTGCAG	3940 fluorescence intensity (a.u.)
ATGACGCAAATTCTCAGGTACACGTTTGGTGCCCCGGAGCCGGAGTCACCTAGTGCAG	3360 fluorescence intensity (a.u.)
CAATGTGGTCACGTGAATTCTCTCTGTCAGTTTTGATGTGCGGAGTCACCTAGTGCAG	3870 fluorescence intensity (a.u.)
CCCTCACCTTATCCCGAAGGACACGTGCGACTTCTTCGGTCGGAGTCACCTAGTGCAG	5050 fluorescence intensity (a.u.)
ATGTAATCCAAATGGACCCCACGTGGAACATGCTCACAGTCGGAGTCACCTAGTGCAG	10100 fluorescence intensity (a.u.)
CGGAGGCAGGAACAAGTTGGCGGCGACCATCTTGACCAGCCGGAGTCACCTAGTGCAG	3400 fluorescence intensity (a.u.)
TGAGAAATTCTTGCTAGATGTGTTGTACCATTATCAGCAGCGGAGTCACCTAGTGCAG	4580 fluorescence intensity (a.u.)
ACGCTCGCCGCGCCGGCACGCCATTCCCTTCTCGTCAGGTCGGAGTCACCTAGTGCAG	3220 fluorescence intensity (a.u.)
CTTCTGGCTCTGGGTACGTACTCATGAGTCAGGAAAGGAACGGAGTCACCTAGTGCAG	4640 fluorescence intensity (a.u.)
GGCCACGCCGCCGCATACTCTCTGCCACCTAGCATCATCACGGAGTCACCTAGTGCAG	4030 fluorescence intensity (a.u.)
TACTGCCCCACGTGTTGCAAGATCTACAACTGCAATAGACCGGAGTCACCTAGTGCAG	4240 fluorescence intensity (a.u.)
CTCCTGTGAGGAACAAACGGTTGAGATGGTGCCACGTGGCCGGAGTCACCTAGTGCAG	26700 fluorescence intensity (a.u.)
CCGCCGCCACATTGATGGTAATAGTTGGATCCGCCGCCTCCGGAGTCACCTAGTGCAG	3590 fluorescence intensity (a.u.)
CGCCCTTGCTACCCGTAGATGTCATGTCTGATGTTGCTCCCGGAGTCACCTAGTGCAG	4150 fluorescence intensity (a.u.)
ACACTAACTAGTACAAAGGATTATGCGTGACGAGCTGGATCGGAGTCACCTAGTGCAG	3410 fluorescence intensity (a.u.)
TTTTATGCAGTCCAATAACCAAAGAACACTTGAAAATAACCGGAGTCACCTAGTGCAG	34300 fluorescence intensity (a.u.)
CGGCGTGCCGCACCGGCGTGGCGTCACGCTGGCCACGGAACGGAGTCACCTAGTGCAG	7400 fluorescence intensity (a.u.)
TCCCACGTATAGGGTCCCACTTGTCAGTGACGTTTTGCGTCGGAGTCACCTAGTGCAG	4270 fluorescence intensity (a.u.)
AGGCTTTCAGACCGCTCTGTACGTGACGTGGCCTACTCATCGGAGTCACCTAGTGCAG	32500 fluorescence intensity (a.u.)
GGGTCCATTTGGTAACTGACTCCACGTTCGATGGATCAACCGGAGTCACCTAGTGCAG	3540 fluorescence intensity (a.u.)
GAATTGGATAGCAGACTACGGCGACTGCCACACAGGGTCTCGGAGTCACCTAGTGCAG	5750 fluorescence intensity (a.u.)
